Among the data in publication PMC12284529 are binding values, retold here.

No constants are given. Whether binding was seen depends on the method and setting. In cells and extracts the contact can be indirect. Binding calls can cover weak binding; strength is not graded here.

One assay has as its target GST-HIPK4. The assay is described as follows: pull-down; GST fusions from bacteria coupled to glutathione-Sepharose 4B beads, incubated with 293T cells for 2 h at 4 °C; washed with GST-binding buffer; Western blot with anti-TAp63 or HIPK4 antibodies; only the target purified. In general terms: Immunoblotting shows a protein as a band on a membrane.
For another assay, the target named is Flag-HIPK4 (H136D). The assay can be described thus: co-IP; cells (A431) transfected with Flag-tagged TAp63 or HIPK4 constructs; lysates incubated overnight with sepharose CL-4B beads pre-bound to IgG, TAp63, Flag or HIPK4 antibodies; Western blot.
In a further assay the target is Flag-HIPK4 (WT). The description is as above.

B1: TAp63 in 293T cells (protein, UniProt Q9H3D4 1-680)
chain: MNFETSRCATLQYCPDPYIQRFVETPAHFSWKESYYRSTMSQSTQTNEFLSPEVFQHIWDFLEQPICSVQPIDLNFVDEPSEDGATNKIEISMDCIRMQDSDLSDPMWPQYTNLGLLNSMDQQIQNGSSSTSPYNTDHAQNSVTAPSPYAQPSSTFDALSPSPAIPSNTDYPGPHSFDVSFQQSSTAKSATWTYSTELKKLYCQIAKTCPIQIKVMTPPPQGAVIRAMPVYKKAEHVTEVVKRCPNHELSREFNEGQIAPPSHLIRVEGNSHAQYVEDPITGRQSVLVPYEPPQVGTEFTTVLYNFMCNSSCVGGMNRRPILIIVTLETRDGQVLGRRCFEARICACPGRDRKADEDSIRKQQVSDSTKNGDGTKRPFRQNTHGIQMTSIKKRRSPDDELLYLPVRGRETYEMLLKIKESLELMQYLPQHTIETYRQQQQQQHQHLLQKQTSIQSPSSYGNSSPPLNKMNSMNKLPSVSQLINPQQRNALTPTTIPDGMGANIPMMGTHMPMAGDMNGLSPTQALPPPLSMPSTSHCTPPPPYPTDCSIVSFLARLGCSSCLDYFTTQGLTTIYQIEHYSMDDLASLKIPEQFRHAIWKGILDHRQLHEFSSPSHLLRTPSSASTVSVGSSETRGERVIDAVRFTLRQTISFPPRDEWNDFNFDMDARRNKQQRIKEEGE
For the molecule B1, the binding result with GST-HIPK4 is “binds”.

B2: TAp63, endogenous in A431 cells (protein, UniProt Q9H3D4 1-680)
chain: B1 chain
On to B2, for which the binding result in the assay with Flag-HIPK4 (H136D) and with Flag-HIPK4 (WT) was “binds” each time.
